The target of the assay is T1, FtsZ, bacterial two-hybrid fusion (Anabaena sp. PCC 7120) (UniProt P45482).
T1 sequence: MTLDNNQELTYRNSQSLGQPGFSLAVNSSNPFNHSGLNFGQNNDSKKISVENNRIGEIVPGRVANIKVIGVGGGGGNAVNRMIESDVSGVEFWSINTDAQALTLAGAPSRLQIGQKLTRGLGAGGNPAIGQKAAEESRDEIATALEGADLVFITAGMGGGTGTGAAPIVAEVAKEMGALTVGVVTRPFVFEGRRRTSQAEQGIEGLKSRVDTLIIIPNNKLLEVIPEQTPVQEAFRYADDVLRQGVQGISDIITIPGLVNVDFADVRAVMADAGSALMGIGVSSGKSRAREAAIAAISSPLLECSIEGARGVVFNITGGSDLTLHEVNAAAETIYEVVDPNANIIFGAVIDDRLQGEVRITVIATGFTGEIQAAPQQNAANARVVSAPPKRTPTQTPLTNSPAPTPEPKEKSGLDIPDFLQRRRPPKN
The experiment in a line: two-hybrid.

These are yes or no findings as the source states them, for the method shown. Binding can be weak; no strength is given. Sequences can lack the tags named with a protein.

Consider “CeaR (All2460), bacterial two-hybrid fusion (Anabaena sp. PCC 7120)”, for which the binding result is reported as “binds weakly”.
